# Results taken from paper doi:10.1101/2025.07.25.666749.
# T1: UltraID_ZFP36L1 (UltraID fused to the N-terminus of ZFP36L1) (UniProt Q07352)
# T1 sequence: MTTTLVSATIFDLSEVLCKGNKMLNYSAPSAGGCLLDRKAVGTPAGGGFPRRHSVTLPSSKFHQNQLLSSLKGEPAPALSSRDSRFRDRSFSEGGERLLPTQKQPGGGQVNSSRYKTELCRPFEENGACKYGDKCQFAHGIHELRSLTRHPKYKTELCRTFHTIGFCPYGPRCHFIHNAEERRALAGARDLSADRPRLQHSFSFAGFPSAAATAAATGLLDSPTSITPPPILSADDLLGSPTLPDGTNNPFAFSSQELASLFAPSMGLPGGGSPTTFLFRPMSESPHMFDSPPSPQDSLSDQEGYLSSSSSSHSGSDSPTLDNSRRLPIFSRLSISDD
# Target: T1, UltraID_ZFP36L1 (UltraID fused to the N-terminus of ZFP36L1)
# Assay: proximity labelling
row,Molecule,binding
1,4EHP (from UniProt O60573 1-245),binds
2,AGO2 (from UniProt Q9UKV8 1-859),binds
3,CNOT2 (from UniProt Q9NZN8 1-540),binds
4,CNOT3 (from UniProt O75175 1-753),binds
5,CNOT7 (from UniProt Q9UIV1 1-285),binds
6,DCP2 (from UniProt Q8IU60 1-420),binds
7,EXOC1 (from UniProt Q9NV70 1-894),binds
8,EXOC3 (from UniProt O60645 1-745),binds
9,EXOC4 (from UniProt Q96A65 1-974),binds
10,FXR1 (from UniProt P51114 1-621),binds
11,FXR2 (from UniProt P51116 1-673),binds
12,G3BP1 (from UniProt Q13283 1-466),binds
13,NUPL1 (from UniProt Q9BVL2 1-599),binds
14,PRRC2A (from UniProt P48634 1-2157),binds
15,SQSTM1 (p62) (from UniProt Q13501 1-440),binds
16,YWHAB (from UniProt P31946 1-246),binds
17,YWHAZ (from UniProt P63104 1-245),binds

# Target: T1, UltraID_ZFP36L1 (UltraID fused to the N-terminus of ZFP36L1)
# Assay: proximity labelling
# Remark: another data set of the same source
row,Molecule,binding
1,"PAN2 (protein, UniProt Q504Q3 1-1202) MNFEGLDPGLAEYAPAMHSALDPVLDAHLNPSLLQNVELDPEGVALEALPVQESVHIMEGVYSELHSVVAEVGVPVSVSHFDLHEEMLWVGSHGGHATSFFGPALERYSSFQVNGSDDIRQIQSLENGILFLTKNNLKYMARGGLIIFDYLLDENEDMHSLLLTDSSTLLVGGLQNHIIEIDLNTVQETQKYAVETPGVTIMRQTNRFFFCGHTSGKVSLRDLRTFKVEHEFDAFSGSLSDFDVHGNLLAACGFSSRLTGLACDRFLKVYDLRMMRAITPLQVHVDPAFLRFIPTYTSRLAIISQSGQCQFCEPTGLANPADIFHVNPVGPLLMTFDVSASKQALAFGDSEGCVHLWTDSPEPSFNPYSRETEFALPCLVDSLPPLDWSQDLLPLSLIPVPLTTDTLLSDWPAANSAPAPRRAPPVDAEILRTMKKVGFIGYAPNPRTRLRNQIPYRLKESDSEFDSFSQVTESPVGREEEPHLHMVSKKYRKVTIKYSKLGLEDFDFKHYNKTLFAGLEPHIPNAYCNCMIQVLYFLEPVRCLIQNHLCQKEFCLACELGFLFHMLDLSRGDPCQGNNFLRAFRTIPEASALGLILADSDEASGKGNLARLIQRWNRFILTQLHQDMQELEIPQAYRGAGGSSFCSSGDSVIGQLFSCEMENCSLCRCGSETVRASSTLLFTLSYPDGSKSDKTGKNYDFAQVLKRSICLDQNTQAWCDTCEKYQPTIQTRNIRHLPDILVINCEVNSSKEADFWRMQAEVAFKMAVKKHGGEISKNKEFALADWKELGSPEGVLVCPSIEELKNVWLPFSIRMKMTKNKGLDVCNWTDGDEMQWGPARAEEEHGVYVYDLMATVVHILDSRTGGSLVAHIKVGETYHQRKEGVTHQQWYLFNDFLIEPIDKHEAVQFDMNWKVPAILYYVKRNLNSRYNLNIKNPIEASVLLAEASLARKQRKTHTTFIPLMLNEMPQIGDLVGLDAEFVTLNEEEAELRSDGTKSTIKPSQMSVARITCVRGQGPNEGIPFIDDYISTQEQVVDYLTQYSGIKPGDLDAKISSKHLTTLKSTYLKLRFLIDIGVKFVGHGLQKDFRVINLMVPKDQVLDTVYLFHMPRKRMISLRFLAWYFLDLKIQGETHDSIEDARTALQLYRKYLELSKNGTEPESFHKVLKGLYEKGRKMDWKVPEPEGQTSPKNAAVFSSVLAL",binds
2,"FAM120A (protein, UniProt Q9NZB2 1-1118) MGVQGFQDYIEKHCPSAVVPVELQKLARGSLVGGGRQRPPQTPLRLLVDADNCLHRLYGGFYTDWVSGGQWNHMLGYLAALAKACFGGNIELFVFFNGALEKARLHEWVKRQGNERQTAQQIVSHVQNKGTPPPKVWFLPPVCMAHCIRLALIRFHVKVAQSIEDHHQEVIGFCRENGFHGLVAYDSDYALCNIPYYFSAHALKLSRNGKSLTTSQYLMHEVAKQLDLNPNRFPIFAALLGNHILPDEDLASFHWSLLGPEHPLASLKVRAHQLVLPPCDVVIKAVADYVRNIQDTSDLDAIAKDVFQHSQSRTDDKVIRFKRAIGYYSATSKPMSFHPPHYLAARPGPFGMPGMVPPHVPPQMLNIPQTSLQAKPVAPQVPSPGGAPGQGPYPYSLSEPAPLTLDTSGKNLTEQNSYSNIPHEGKHTPLYERSSPINPAQSGSPNHVDSAYFPGSSTSSSSDNDEGSGGATNHISGNKIGWEKTGSHSEPQARGDPGDQTKAEGSSTASSGSQLAEGKGSQMGTVQPIPCLLSMPTRNHMDITTPPLPPVAPEVLRVAEHRHKKGLMYPYIFHVLTKGEIKIAVSIEDEANKDLPPAALLYRPVRQYVYGVLFSLAESRKKTERLAFRKNRLPPEFSPVIIKEWAAYKGKSPQTPELVEALAFREWTCPNLKRLWLGKAVEDKNRRMRAFLACMRSDTPAMLNPANVPTHLMVLCCVLRYMVQWPGARILRRQELDAFLAQALSPKLYEPDQLQELKIENLDPRGIQLSALFMSGVDMALFANDACGQPIPWEHCCPWMYFDGKLFQSKLLKASREKTPLIDLCDGQADQAAKVEKMRQSVLEGLSFSRQSHTLPFPPPPALPFYPASAYPRHFGPVPPSQGRGRGFAGVCGFGGPYGETVATGPYRAFRVAAASGHCGAFSGSDSSRTSKSQGGVQPIPSQGGKLEIAGTVVGHWAGSRRGRGGRGPFPLQVVSVGGPARGRPRGVISTPVIRTFGRGGRYYGRGYKNQAAIQGRPPYAASAEEVAKELKSKSGESKSSAMSSDGSLAENGVMAEEKPAPQMNGSTGDARAPSHSESALNNDSKTCNTNPHLNALSTDSACRREAALEAAVLNKEE",binds
3,"MOV10 (protein, UniProt Q9HCE1 1-1003) MPSKFSCRQLREAGQCFESFLVVRGLDMETDRERLRTIYNRDFKISFGTPAPGFSSMLYGMKIANLAYVTKTRVRFFRLDRWADVRFPEKRRMKLGSDISKHHKSLLAKIFYDRAEYLHGKHGVDVEVQGPHEARDGQLLIRLDLNRKEVLTLRLRNGGTQSVTLTHLFPLCRTPQFAFYNEDQELPCPLGPGECYELHVHCKTSFVGYFPATVLWELLGPGESGSEGAGTFYIARFLAAVAHSPLAAQLKPMTPFKRTRITGNPVVTNRIEEGERPDRAKGYDLELSMALGTYYPPPRLRQLLPMLLQGTSIFTAPKEIAEIKAQLETALKWRNYEVKLRLLLHLEELQMEHDIRHYDLESVPMTWDPVDQNPRLLTLEVPGVTESRPSVLRGDHLFALLSSETHQEDPITYKGFVHKVELDRVKLSFSMSLLSRFVDGLTFKVNFTFNRQPLRVQHRALELTGRWLLWPMLFPVAPRDVPLLPSDVKLKLYDRSLESNPEQLQAMRHIVTGTTRPAPYIIFGPPGTGKTVTLVEAIKQVVKHLPKAHILACAPSNSGADLLCQRLRVHLPSSIYRLLAPSRDIRMVPEDIKPCCNWDAKKGEYVFPAKKKLQEYRVLITTLITAGRLVSAQFPIDHFTHIFIDEAGHCMEPESLVAIAGLMEVKETGDPGGQLVLAGDPRQLGPVLRSPLTQKHGLGYSLLERLLTYNSLYKKGPDGYDPQFITKLLRNYRSHPTILDIPNQLYYEGELQACADVVDRERFCRWAGLPRQGFPIIFHGVMGKDEREGNSPSFFNPEEAATVTSYLKLLLAPSSKKGKARLSPRSVGVISPYRKQVEKIRYCITKLDRELRGLDDIKDLKVGSVEEFQGQERSVILISTVRSSQSFVQLDLDFNLGFLKNPKRFNVAVTRAKALLIIVGNPLLLGHDPDWKVFLEFCKENGGYTGCPFPAKLDLQQGQNLLQGLSKLSPSTSGPHSHDYLPQEREGEGGLSLQVEPEWRNEL",binds
4,"PARN (protein, UniProt O95453 1-639) MEIIRSNFKSNLHKVYQAIEEADFFAIDGEFSGISDGPSVSALTNGFDTPEERYQKLKKHSMDFLLFQFGLCTFKYDYTDSKYITKSFNFYVFPKPFNRSSPDVKFVCQSSSIDFLASQGFDFNKVFRNGIPYLNQEEERQLREQYDEKRSQANGAGALSYVSPNTSKCPVTIPEDQKKFIDQVVEKIEDLLQSEENKNLDLEPCTGFQRKLIYQTLSWKYPKGIHVETLETEKKERYIVISKVDEEERKRREQQKHAKEQEELNDAVGFSRVIHAIANSGKLVIGHNMLLDVMHTVHQFYCPLPADLSEFKEMTTCVFPRLLDTKLMASTQPFKDIINNTSLAELEKRLKETPFNPPKVESAEGFPSYDTASEQLHEAGYDAYITGLCFISMANYLGSFLSPPKIHVSARSKLIEPFFNKLFLMRVMDIPYLNLEGPDLQPKRDHVLHVTFPKEWKTSDLYQLFSAFGNIQISWIDDTSAFVSLSQPEQVKIAVNTSKYAESYRIQTYAEYMGRKQEEKQIKRKWTEDSWKEADSKRLNPQCIPYTLQNHYYRNNSFTAPSTVGKRNLSPSQEEAGLEDGVSGEISDTELEQTDSCAEPLSEGRKKAKKLKRMKKELSPAGSISKNSPATLFEVPDTW",binds
5,"ZNF598 (protein, UniProt Q86UK7 1-904) MAAAGGAEGRRAALEAAAAAAPERGGGSCVLCCGDLEATALGRCDHPVCYRCSTKMRVLCEQRYCAVCREELRQVVFGKKLPAFATIPIHQLQHEKKYDIYFADGKVYALYRQLLQHECPRCPELPPFSLFGDLEQHMRRQHELFCCRLCLQHLQIFTYERKWYSRKDLARHRMQGDPDDTSHRGHPLCKFCDERYLDNDELLKHLRRDHYFCHFCDSDGAQDYYSDYAYLREHFREKHFLCEEGRCSTEQFTHAFRTEIDLKAHRTACHSRSRAEARQNRHIDLQFSYAPRHSRRNEGVVGGEDYEEVDRYSRQGRVARAGTRGAQQSRRGSWRYKREEEDREVAAAVRASVAAQQQEEARRSEDQEEGGRPKKEEAAARGPEDPRGPRRSPRTQGEGPGPKETSTNGPVSQEAFSVTGPAAPGCVGVPGALPPPSPKLKDEDFPSLSASTSSSCSTAATPGPVGLALPYAIPARGRSAFQEEDFPALVSSVPKPGTAPTSLVSAWNSSSSSKKVAQPPLSAQATGSGQPTRKAGKGSRGGRKGGPPFTQEEEEDGGPALQELLSTRPTGSVSSTLGLASIQPSKVGKKKKVGSEKPGTTLPQPPPATCPPGALQAPEAPASRAEGPVAVVVNGHTEGPAPARSAPKEPPGLPRPLGSFPCPTPQEDFPALGGPCPPRMPPPPGFSAVVLLKGTPPPPPPGLVPPISKPPPGFSGLLPSPHPACVPSPATTTTTKAPRLLPAPRAYLVPENFRERNLQLIQSIRDFLQSDEARFSEFKSHSGEFRQGLISAAQYYKSCRDLLGENFQKVFNELLVLLPDTAKQQELLSAHTDFCNREKPLSTKSKKNKKSAWQATTQQAGLDCRVCPTCQQVLAHGDASSHQALHAARDDDFPSLQAIARIIT",binds

# These are yes or no findings as the source states them, for the method shown. Binding seen in cells or lysates may run through a third protein. A yes stands for co-enrichment or nearness to the bait. Other partners may have been found. Sequences can lack the tags named with a protein.
